This is one part of the list.
Experiments:
Experiment in all cases: log2 fold change, soluble protein after heating vs DMSO (PISA); higher = thermal stabilisation; K562 lysate, 10 uM; active = over 0.2 and 3.5 SD of the protein, either way, in both replicates (recomputed)
erlotinib = compound: C#Cc1cccc(Nc2ncnc3cc(OCCOC)c(OCCOC)cc23)c1 [erlotinib]
Summary of the method: (§1)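 The values are log-two fold changes in thermal stability compared with solvent controls and come from duplicates. They were obtained by TMTpro 16plex LC-MS/MS, with channel sums equalised, on the supernatant after 21,000xg for 90 min. That supernatant came from crude K562 extract at 1 mg/mL protein treated with 10 μM compound for 30 min, heated for 3 min across 48°C-58°C, pooled and brought to 0.5% NP-40 at 4°C.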

Protein sequences, listed by entry. Tags and fused reporters are not part of them. Lines headed by an entry give the natural chain unless they say otherwise; changes in a name come on top.
UniProt A2RUR9: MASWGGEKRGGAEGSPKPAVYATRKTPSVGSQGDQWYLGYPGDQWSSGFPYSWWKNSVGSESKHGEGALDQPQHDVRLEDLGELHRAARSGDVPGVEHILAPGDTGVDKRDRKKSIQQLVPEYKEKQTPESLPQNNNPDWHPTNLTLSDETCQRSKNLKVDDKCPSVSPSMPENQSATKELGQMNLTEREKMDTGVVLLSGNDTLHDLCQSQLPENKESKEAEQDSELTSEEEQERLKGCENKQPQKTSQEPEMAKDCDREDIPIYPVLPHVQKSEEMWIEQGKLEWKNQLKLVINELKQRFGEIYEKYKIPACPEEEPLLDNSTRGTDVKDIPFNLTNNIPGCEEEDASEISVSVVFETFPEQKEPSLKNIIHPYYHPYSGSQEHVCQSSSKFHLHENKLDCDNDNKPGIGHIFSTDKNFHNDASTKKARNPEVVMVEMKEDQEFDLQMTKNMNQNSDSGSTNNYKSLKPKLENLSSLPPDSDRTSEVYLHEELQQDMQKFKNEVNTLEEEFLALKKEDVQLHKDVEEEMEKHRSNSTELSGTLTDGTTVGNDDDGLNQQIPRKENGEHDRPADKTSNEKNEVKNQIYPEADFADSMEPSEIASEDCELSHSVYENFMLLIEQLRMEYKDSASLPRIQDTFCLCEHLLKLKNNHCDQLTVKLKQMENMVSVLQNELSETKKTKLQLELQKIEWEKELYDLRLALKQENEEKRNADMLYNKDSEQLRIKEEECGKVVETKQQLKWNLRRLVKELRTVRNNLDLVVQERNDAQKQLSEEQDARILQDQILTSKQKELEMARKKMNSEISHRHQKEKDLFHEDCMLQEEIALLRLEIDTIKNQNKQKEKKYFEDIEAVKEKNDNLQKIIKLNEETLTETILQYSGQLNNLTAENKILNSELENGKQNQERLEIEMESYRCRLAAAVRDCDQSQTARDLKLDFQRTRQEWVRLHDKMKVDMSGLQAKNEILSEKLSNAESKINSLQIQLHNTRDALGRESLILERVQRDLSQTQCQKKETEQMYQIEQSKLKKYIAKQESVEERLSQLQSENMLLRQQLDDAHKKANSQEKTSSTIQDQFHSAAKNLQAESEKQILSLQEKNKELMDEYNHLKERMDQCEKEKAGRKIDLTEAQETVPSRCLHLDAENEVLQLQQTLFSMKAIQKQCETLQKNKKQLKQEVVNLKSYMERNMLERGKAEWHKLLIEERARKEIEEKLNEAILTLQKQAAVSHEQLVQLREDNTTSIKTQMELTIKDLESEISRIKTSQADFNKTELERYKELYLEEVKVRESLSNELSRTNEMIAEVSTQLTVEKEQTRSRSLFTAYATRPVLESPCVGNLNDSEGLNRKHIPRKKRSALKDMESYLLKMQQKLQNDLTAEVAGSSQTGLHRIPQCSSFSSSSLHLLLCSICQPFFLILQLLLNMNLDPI
UniProt P30279, whole entry, looked up: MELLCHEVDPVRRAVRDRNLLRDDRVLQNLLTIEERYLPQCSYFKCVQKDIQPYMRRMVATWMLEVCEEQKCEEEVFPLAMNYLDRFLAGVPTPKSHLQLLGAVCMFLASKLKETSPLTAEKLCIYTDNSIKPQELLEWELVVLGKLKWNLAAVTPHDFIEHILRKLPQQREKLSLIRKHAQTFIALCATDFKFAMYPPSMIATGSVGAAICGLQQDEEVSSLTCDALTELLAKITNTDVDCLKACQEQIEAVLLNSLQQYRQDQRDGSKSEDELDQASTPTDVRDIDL
UniProt P55210: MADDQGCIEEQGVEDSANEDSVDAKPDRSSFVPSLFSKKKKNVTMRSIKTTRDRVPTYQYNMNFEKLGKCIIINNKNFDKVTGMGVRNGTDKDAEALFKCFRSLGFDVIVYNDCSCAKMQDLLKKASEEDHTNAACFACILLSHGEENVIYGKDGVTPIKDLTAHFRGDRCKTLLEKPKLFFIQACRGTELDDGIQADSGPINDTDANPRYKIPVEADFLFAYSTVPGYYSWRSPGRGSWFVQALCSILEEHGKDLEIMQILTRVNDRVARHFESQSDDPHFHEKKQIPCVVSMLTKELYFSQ
UniProt Q96JN2: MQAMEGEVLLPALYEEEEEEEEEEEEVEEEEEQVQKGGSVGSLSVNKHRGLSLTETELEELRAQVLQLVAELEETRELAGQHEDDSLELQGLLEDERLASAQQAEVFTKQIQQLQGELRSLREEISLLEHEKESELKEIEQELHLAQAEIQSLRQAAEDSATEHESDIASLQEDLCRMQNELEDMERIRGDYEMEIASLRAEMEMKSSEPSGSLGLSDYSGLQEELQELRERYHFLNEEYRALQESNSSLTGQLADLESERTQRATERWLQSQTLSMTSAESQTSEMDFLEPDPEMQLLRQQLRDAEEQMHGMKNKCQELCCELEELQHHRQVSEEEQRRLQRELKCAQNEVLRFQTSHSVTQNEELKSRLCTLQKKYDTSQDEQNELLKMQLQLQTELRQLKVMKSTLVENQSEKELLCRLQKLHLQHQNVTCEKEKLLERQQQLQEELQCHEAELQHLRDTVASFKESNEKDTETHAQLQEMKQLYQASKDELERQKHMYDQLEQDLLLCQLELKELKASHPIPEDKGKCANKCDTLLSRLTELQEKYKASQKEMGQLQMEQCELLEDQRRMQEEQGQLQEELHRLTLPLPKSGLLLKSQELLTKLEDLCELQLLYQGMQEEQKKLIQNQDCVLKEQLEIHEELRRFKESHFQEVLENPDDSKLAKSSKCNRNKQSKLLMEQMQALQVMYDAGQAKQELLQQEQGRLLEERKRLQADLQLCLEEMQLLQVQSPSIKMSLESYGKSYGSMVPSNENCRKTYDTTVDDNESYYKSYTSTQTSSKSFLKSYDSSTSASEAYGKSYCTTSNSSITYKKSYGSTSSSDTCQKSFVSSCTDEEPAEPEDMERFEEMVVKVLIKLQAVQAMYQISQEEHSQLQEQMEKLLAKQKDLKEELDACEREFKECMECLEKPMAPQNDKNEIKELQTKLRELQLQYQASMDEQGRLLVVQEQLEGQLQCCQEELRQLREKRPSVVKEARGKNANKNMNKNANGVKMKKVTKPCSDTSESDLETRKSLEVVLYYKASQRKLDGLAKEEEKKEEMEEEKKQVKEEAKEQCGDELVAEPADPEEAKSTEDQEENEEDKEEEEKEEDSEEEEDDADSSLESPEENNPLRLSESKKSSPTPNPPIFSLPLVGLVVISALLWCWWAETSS
UniProt Q96EE4: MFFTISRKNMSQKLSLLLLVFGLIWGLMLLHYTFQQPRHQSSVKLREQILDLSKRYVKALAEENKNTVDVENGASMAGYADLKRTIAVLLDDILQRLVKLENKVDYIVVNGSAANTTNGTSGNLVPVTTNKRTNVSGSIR
UniProt O43439: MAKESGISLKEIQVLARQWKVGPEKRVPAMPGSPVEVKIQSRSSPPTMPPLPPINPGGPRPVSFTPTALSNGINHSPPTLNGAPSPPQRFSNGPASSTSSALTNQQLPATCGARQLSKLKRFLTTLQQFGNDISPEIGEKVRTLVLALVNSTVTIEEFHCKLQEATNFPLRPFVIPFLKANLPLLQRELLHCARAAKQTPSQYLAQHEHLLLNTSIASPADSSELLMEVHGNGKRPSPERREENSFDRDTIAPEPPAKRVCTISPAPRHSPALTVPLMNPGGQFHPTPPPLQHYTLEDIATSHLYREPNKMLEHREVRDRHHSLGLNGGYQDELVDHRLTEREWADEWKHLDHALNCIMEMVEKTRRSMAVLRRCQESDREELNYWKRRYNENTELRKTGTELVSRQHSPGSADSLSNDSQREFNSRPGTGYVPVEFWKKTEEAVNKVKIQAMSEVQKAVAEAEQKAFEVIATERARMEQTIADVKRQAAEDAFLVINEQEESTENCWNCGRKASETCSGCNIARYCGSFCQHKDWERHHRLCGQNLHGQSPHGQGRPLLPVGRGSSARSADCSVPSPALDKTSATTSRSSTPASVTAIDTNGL
UniProt P55212: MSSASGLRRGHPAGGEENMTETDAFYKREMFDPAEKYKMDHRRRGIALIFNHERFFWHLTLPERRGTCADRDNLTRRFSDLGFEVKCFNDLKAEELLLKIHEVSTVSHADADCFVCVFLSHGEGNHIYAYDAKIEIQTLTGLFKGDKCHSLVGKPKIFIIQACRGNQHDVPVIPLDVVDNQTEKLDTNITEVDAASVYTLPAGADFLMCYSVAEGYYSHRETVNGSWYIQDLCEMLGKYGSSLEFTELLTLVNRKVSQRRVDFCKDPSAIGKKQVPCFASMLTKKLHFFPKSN
UniProt Q15834: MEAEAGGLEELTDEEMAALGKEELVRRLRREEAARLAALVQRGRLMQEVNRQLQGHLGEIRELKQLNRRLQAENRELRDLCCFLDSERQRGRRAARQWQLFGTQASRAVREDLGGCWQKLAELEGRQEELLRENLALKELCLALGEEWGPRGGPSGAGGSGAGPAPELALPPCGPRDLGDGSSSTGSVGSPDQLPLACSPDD
UniProt O14936: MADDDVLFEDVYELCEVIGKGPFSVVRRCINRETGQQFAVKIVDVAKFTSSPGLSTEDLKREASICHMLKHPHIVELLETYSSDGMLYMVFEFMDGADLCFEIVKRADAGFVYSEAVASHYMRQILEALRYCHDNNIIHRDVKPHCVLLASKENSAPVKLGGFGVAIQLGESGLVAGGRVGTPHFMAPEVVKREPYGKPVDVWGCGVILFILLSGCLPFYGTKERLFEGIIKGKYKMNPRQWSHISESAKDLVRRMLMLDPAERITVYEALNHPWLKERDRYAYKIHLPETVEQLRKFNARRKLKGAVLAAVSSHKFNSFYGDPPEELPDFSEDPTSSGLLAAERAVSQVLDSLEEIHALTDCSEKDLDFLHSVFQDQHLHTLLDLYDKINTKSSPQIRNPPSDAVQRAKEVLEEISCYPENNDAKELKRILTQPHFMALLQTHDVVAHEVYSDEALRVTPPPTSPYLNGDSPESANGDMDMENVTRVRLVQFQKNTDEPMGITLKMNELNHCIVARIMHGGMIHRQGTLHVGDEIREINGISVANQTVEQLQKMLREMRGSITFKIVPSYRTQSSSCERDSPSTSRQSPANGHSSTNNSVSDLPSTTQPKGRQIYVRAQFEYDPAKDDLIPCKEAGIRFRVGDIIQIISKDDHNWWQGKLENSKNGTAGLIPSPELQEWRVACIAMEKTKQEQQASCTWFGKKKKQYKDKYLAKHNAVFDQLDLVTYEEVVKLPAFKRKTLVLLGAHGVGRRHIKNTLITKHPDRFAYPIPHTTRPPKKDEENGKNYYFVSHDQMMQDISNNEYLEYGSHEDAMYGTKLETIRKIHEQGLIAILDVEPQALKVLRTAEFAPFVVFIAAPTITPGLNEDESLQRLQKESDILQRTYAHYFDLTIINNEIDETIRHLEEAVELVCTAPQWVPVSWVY
UniProt Q6TDU7: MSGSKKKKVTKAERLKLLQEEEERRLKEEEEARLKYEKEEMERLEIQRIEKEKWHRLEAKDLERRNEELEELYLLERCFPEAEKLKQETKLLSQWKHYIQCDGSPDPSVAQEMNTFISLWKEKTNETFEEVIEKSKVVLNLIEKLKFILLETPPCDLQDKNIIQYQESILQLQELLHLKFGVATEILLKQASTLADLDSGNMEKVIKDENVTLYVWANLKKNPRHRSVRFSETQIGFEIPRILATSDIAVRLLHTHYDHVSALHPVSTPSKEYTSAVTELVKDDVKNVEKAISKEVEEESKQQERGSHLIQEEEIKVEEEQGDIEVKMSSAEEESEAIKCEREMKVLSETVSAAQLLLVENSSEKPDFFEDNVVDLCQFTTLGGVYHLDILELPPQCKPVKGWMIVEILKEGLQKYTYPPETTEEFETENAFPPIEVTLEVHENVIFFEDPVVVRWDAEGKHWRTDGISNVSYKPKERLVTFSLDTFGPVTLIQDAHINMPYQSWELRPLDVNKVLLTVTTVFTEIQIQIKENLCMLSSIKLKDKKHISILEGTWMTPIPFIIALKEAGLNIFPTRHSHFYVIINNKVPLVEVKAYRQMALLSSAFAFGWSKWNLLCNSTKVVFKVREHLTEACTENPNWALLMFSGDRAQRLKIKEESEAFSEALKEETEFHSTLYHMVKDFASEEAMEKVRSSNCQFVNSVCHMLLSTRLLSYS
UniProt Q92526, whole entry, looked up: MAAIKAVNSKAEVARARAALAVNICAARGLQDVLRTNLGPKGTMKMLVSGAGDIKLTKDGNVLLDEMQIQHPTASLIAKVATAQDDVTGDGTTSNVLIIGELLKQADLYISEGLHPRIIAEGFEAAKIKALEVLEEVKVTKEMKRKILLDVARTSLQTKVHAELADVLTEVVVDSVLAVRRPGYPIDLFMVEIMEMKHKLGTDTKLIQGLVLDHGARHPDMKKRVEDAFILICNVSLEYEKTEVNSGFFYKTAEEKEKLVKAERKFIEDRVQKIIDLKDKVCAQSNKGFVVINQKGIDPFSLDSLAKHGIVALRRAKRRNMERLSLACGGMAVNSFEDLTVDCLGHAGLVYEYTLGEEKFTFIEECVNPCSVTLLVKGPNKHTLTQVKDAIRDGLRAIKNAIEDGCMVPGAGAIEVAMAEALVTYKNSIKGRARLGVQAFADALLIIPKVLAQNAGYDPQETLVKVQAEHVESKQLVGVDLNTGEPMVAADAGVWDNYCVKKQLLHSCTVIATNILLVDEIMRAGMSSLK

[1] = compound: C/C(=N\NC(=O)C1=CC(=CC=C1)S(=O)(=O)N2CCOCC2)/C3=C(C=CC(=C3)Cl)O
Summary of the method: as §1

[2] = compound: C1=CC(=CC=C1C2=NC3=C(N2)C=C(C=C3)C(=O)N)OC4=CC=C(C=C4)Cl
Summary of the method: as §1

[3] = compound: C1=CC2=C(C=CC(=C2)/C=C\3/C(=O)NC(=NCC4=CC=CS4)S3)N=C1
Summary of the method: as §1

[4] = compound: C1=CC2=NC=CN=C2C=C1/C=C/3\C(=O)NC(=O)S3
Summary of the method: as §1

[5] = compound: C1=CC=C2C(=C1)C3=NNC4=CC=CC(=C43)C2=O
Summary of the method: as §1

[6] = compound: C1CCN(C1)C(=O)NC2=CC=CC(=C2)NC3=NC=C(C(=N3)NCCC4=CN=CN4)Br
Summary of the method: as §1

[7] = compound: C1CN(CCC1(CC2=CC=C(C=C2)Cl)N)C3=NC=NC4=C3C=CN4
Summary of the method: as §1

ibrutinib = compound: C=CC(=O)N1CCC[C@@H](n2nc(-c3ccc(Oc4ccccc4)cc3)c3c(N)ncnc32)C1 [ibrutinib]
Summary of the method: as §1

[8] = compound: CC(C)C1=C2N=C(C=C(N2N=C1)NCC3=CC=CC=C3)NCCCCCCN
Summary of the method: as §1

[9] = compound: CC1=C(C2=C(C=C1)C(=O)C3=CC=CC=C3N2CCCN)C
Summary of the method: as §1

[10] = compound: CC1=C(C=C(C=C1)NC(=O)C2=CC(=CC=C2)C(C)(C)C#N)NC3=CC4=C(C=C3)N=CN(C4=O)C
Summary of the method: as §1

[11] = compound: C1=CC=C(C=C1)C2=NC(=C(N2)C3=CC=NC=C3)C4=CC(=C(C=C4)Cl)O
Summary of the method: as §1

IRAK-1-4 Inhibitor I = compound: C1COCCN1CCN2C3=CC=CC=C3N=C2NC(=O)C4=CC(=CC=C4)[N+](=O)[O-] [IRAK-1-4 Inhibitor I]
Summary of the method: as §1

[12] = compound: CC(=O)c1cnc2ccc(-c3cc(Cl)c(O)c(Cl)c3)nc2c1N[C@H]1CC[C@H](CN(C)C)CC1
Summary of the method: as §1

ralimetinib = compound: CC(C)(C)Cn1c(N)nc2ccc(-c3[nH]c(C(C)(C)C)nc3-c3ccc(F)cc3)nc21 [ralimetinib]
Summary of the method: as §1

[13] = compound: CC(C)(O)CC(=O)NCCn1ccc2ncnc(Nc3ccc(Oc4cccc(C(F)(F)F)c4)c(Cl)c3)c21
Summary of the method: as §1

[14] = compound: CC1=C(C(CC(=O)N1)C2=CC=C(C=C2)C(F)(F)F)C(=O)NC3=C(C=C4C(=C3)C=NN4)F
Summary of the method: as §1

[15] = compound: CC1=C(C=C(C=C1)NC(=O)C2=CC(=CC=C2)N(C)C)NC(=O)C3=CC=C(C=C3)O
Summary of the method: as §1

[16] = compound: CC1=CC=C(C=C1)SC2=C3C=C(SC3=CN=C2)C(=O)N
Summary of the method: as §1

Measured: log2 fold change

CCDC144A (UniProt A2RUR9)
inactive: erlotinib 0.168 | [1] -0.08 | [2] 0.066 | [3] -0.107 | [4] -0.024 | [5] -0.208 | [6] -0.083 | [7] 0.121 | ibrutinib -0.092 | [8] 0.134 | [9] 0.055 | [10] -0.127

CCND2 (UniProt P30279)
inactive: erlotinib -0.023 | [2] 0.139 | [4] -0.006 | [11] -0.051 | IRAK-1-4 Inhibitor I -0.101 | ibrutinib -0.045 | [12] -0.029 | ralimetinib -0.002 | [13] -0.005 | [8] -0.052 | [14] -0.49 | [9] -0.015 | [10] 0.024 | [15] -0.098 | [16] -0.161

CBFB (UniProt Q13951)
inactive: erlotinib 0.028 | [2] -0.061 | [4] -0.031 | [11] 0.013 | [6] -0.004 | [7] 0.031 | IRAK-1-4 Inhibitor I -0.037 | ibrutinib -0.026 | [12] -0.036 | ralimetinib -0.035 | [13] 0.001 | [8] -0.024 | [14] 0.016 | [9] 0.005 | [10] 0.008 | [15] -0.087 | [16] -0.03

CASP7 isoform 3 (UniProt P55210)
inactive: erlotinib 0.104 | [2] 0.008 | [4] -0.086 | [11] 0.019 | [6] -0.013 | [7] 0.098 | IRAK-1-4 Inhibitor I 0.241 | ibrutinib 0 | [12] 0.125 | ralimetinib -0.118 | [13] -0.012 | [8] -0.123 | [14] -0.029 | [9] -0.161 | [10] 0.043 | [15] -0.124 | [16] -0.052

CCDC136 isoform 4 (UniProt Q96JN2)
inactive: erlotinib 0.009 | [1] -0.076 | [2] 0.06 | [3] -0.024 | [5] -0.037 | [6] -0.035 | [7] 0.085 | [8] -0.09 | [9] -0.06 | [10] -0.076

CCDC126 (UniProt Q96EE4)
inactive: erlotinib 0.061 | [2] 0.035 | [8] 0.028 | [10] 0.086

CBFA2T2 isoform 4 (UniProt O43439)
inactive: erlotinib 0.06 | [1] -0.09 | [2] 0.017 | [3] 0.125 | [11] 0 | [5] 0.006 | [6] -0.404 | [7] 0.104 | IRAK-1-4 Inhibitor I -0.013 | [12] 0.181 | ralimetinib 0.177 | [13] 0.055 | [8] 0.051 | [14] 0.002 | [9] 0.105 | [10] 0.002 | [15] -0.093 | [16] -0.214

Two records picked at random from those above, as already listed:
CCDC136 isoform 4 (UniProt Q96JN2)
inactive: erlotinib 0.009 | [1] -0.076 | [2] 0.06 | [3] -0.024 | [5] -0.037 | [6] -0.035 | [7] 0.085 | [8] -0.09 | [9] -0.06 | [10] -0.076

CASP7 isoform 3 (UniProt P55210)
inactive: erlotinib 0.104 | [2] 0.008 | [4] -0.086 | [11] 0.019 | [6] -0.013 | [7] 0.098 | IRAK-1-4 Inhibitor I 0.241 | ibrutinib 0 | [12] 0.125 | ralimetinib -0.118 | [13] -0.012 | [8] -0.123 | [14] -0.029 | [9] -0.161 | [10] 0.043 | [15] -0.124 | [16] -0.052

Remaining list, next part.

CASP6 (UniProt P55212)
inactive: erlotinib -0.006 | [1] 0.031 | [2] -0.006 | [3] -0.004 | [4] 0.006 | [11] 0 | [5] -0.005 | [6] 0.012 | [7] 0.017 | IRAK-1-4 Inhibitor I 0.015 | ibrutinib -0.029 | [12] 0.034 | ralimetinib 0.074 | [13] 0.011 | [8] -0.042 | [14] -0.012 | [9] 0.005 | [10] -0.003 | [15] -0.02 | [16] -0.008

CCDC85B (UniProt Q15834)
inactive: erlotinib -0.126 | [1] 0.22 | [2] -0.066 | [3] -0.022 | [4] -0.001 | [11] -0.058 | [5] 0.015 | [6] -0.361 | [7] -0.203 | IRAK-1-4 Inhibitor I 0.011 | ibrutinib 0.215 | [12] -0.248 | ralimetinib -0.001 | [13] 0.05 | [8] 0.056 | [9] 0.004 | [10] -0.016 | [15] -0.163 | [16] 0.014

CCT3 (UniProt E9PM09)
inactive: erlotinib -0.214 | [1] 0.38 | [2] 0.791 | [3] -0.092 | [4] -0.114 | [11] 0.101 | [5] -0.098 | [6] 0.051 | [7] -0.223 | IRAK-1-4 Inhibitor I -0.15 | ibrutinib -0.145 | [12] -0.032 | ralimetinib -0.253 | [13] 0.184 | [8] 0.148 | [14] -0.155 | [9] -0.227 | [15] -0.162 | [16] 0.003

CCRL2 isoform 2 (UniProt O00421)
inactive: erlotinib -0.146 | [2] -0.009 | [4] 0.063 | [11] -0.152 | IRAK-1-4 Inhibitor I 0.097 | ibrutinib 0.045 | ralimetinib 0.01 | [13] -0.075 | [8] 0.026 | [14] -0.099 | [15] -0.105

CASK (UniProt O14936)
inactive: erlotinib -0.151 | [1] -0.05 | [2] 0.025 | [3] 0.034 | [4] 0.014 | [11] 0.027 | [5] -0.007 | [6] 0.068 | [7] 0.029 | IRAK-1-4 Inhibitor I -0.059 | ibrutinib 0.108 | [12] -0.031 | ralimetinib 0.025 | [13] -0.097 | [8] -0.126 | [9] -0.005 | [10] -0.043 | [15] 0.016 | [16] 0.052

CASC1 (UniProt Q6TDU7)
inactive: [11] -0.03 | IRAK-1-4 Inhibitor I 0.179 | ibrutinib 0.24 | ralimetinib 0.078 | [13] -0.093 | [15] 0.097
active: [4] 1.74

CCT6B isoform 3 (UniProt Q92526)
inactive: [1] -0.004 | [3] -0.01 | [5] -0.225 | [12] -0.016 | [9] -0.159 | [16] -0.135
